Measured values taken from the supplement of paper PMC5949888.
Most values lie at the floor of the assay. Slopes are relative: functional sequences can read slightly below zero.

tested on: Saccharomyces cerevisiae PS128 hsf1 delta, HSF1(1-493) fusion; test: growth estimate (transactivation domain function in HSF1 fusion, heat-shock survival) (a.u. (slope of normalised read count over time)); higher = stronger growth at 37°C, i.e. more transactivation activity; conditions: library: random library

Substance	growth estimate
VDRAILPAL	< -0.25
VDRHELWCICSR	< -0.25
VDRI	< -0.25
VDSG	< -0.25
VDSGATIPINLQHCGKTRGS	-0.243
VDSLLHPNEGPV	< -0.25
VDSSCIGLRRLSII	< -0.25
VDTIPEPQTRRAIRRTSQSV	< -0.25
VDTVRTYICSMP	< -0.25
VDVAGFRSVLTGSLISRM	< -0.25
VEEARSLGRVAVGRVRLQPA	< -0.25
VEEFR	< -0.25
VEEKGFCSV	< -0.25
VEESRNVLLGLPGLEMSSCA	< -0.25
VEFSLVRTHSWLGSAIA	< -0.25
VEGF	< -0.25
VEGR	< -0.25
VEGVKFMRRISILVRCDHRS	< -0.25
VEHPPGGLQTFLRDGSSFAV	< -0.25
VEINKPERC	< -0.25
VEKITGPTSQRFRTLVY	< -0.25
VEKRHSSLSEER	< -0.25
VEKTLGHLMV	< -0.25
VELCGGWRPERA	< -0.25
VENIVQLTARPIPFLKDTRA	< -0.25

Substance	growth estimate
VENRPRSG	< -0.25
VERTNWVT	< -0.25
VESEVEQAGHFFGRTTWCRT	< -0.25
VESVYVFSSGSMVMMPLGHI	< -0.25
VEVSG	< -0.25
VEVYSNPTGFILQAILSDAP	< -0.25
VEWPCMCLGNCASVDCS	< -0.25
VFAGNRRDWFRISCLLLAFS	< -0.25
VFALRCNQPF	< -0.25
VFC	< -0.25
VFCNYPYWGQLRAIFDAQCC	-0.248
VFDLRPR	< -0.25
VFEGARSPNCRPQTTTR	< -0.25
VFFEREQSD	< -0.25
VFIKGTWS	-0.25
VFLDS	< -0.25
VFLLTFWGTPECGPSHRIQP	< -0.25
VFPAITSNPQSEPGSAKLA	< -0.25
VFPRRIRPAARDNTNWR	< -0.25
VFRARILSMLRKVRTLRDTP	< -0.25
VFRVP	< -0.25
VFSTACLKDPRCTLQAEYPG	-0.245
VFT	< -0.25
VFTCHNELTEKDNVRKMVCL	< -0.25
VFTTINRTTATVSRSKLMQ	< -0.25

Substance	growth estimate
VFTVVRSTVSSAAHVDVQPA	< -0.25
VFYRFSKRGLVVSFYGHHLP	< -0.25
VFYRRVGHIVRLAEAMCHHH	< -0.25
VGAFLQQVFVM	< -0.25
VGAP	< -0.25
VGASMSWECIIVTPAGRFEL	< -0.25
VGATDLCSCGPLEAVEFA	< -0.25
VGAVETLRSR	< -0.25
VGC	< -0.25
VGCRFRGTNA	< -0.25
VGDIVLHAKLRGRQNIPRNR	< -0.25
VGDQNSKSN	< -0.25
VGERLPRDMRRSESQRENGQ	< -0.25
VGEVVTTWVDVSV	0.19
VGFFPIDEFMPNCAIIYCRP	< -0.25
VGFGSQFGRQFGTAPGTHEL	< -0.25
VGGACMSHLLTKCPVISARC	< -0.25
VGGLD	< -0.25
VGGRCLPPAPLLGGAPKKAV	< -0.25
VGGSGGRLDSLCCGYRGHQK	< -0.25
VGGSPSMTSRYMQSSDPKGS	< -0.25
VGGSRTERAI	< -0.25
VGHGEASAQSGGGNSLNSAR	< -0.25
VGHVVHHFCIEPLEDAK	< -0.25
VGIFVFNHSLGDASMGLGWL	< -0.25

Substance	growth estimate
VGIGLIELGQSVRVRFTRVM	< -0.25
VGIRSRTSG	< -0.25
VGITSGLGRFNRQSIRVSCD	< -0.25
VGKCFEGASIHELSLLSSHL	< -0.25
VGKL	< -0.25
VGKPVVPVSTGVAITRMGHD	< -0.25
VGKTVNLHRGSTR	< -0.25
VGKVVGVSRAKIECIITSWT	< -0.25
VGL	< -0.25
VGLDLQVNSTRHPHLEGTSN	< -0.25
VGLIDFAARSFRTACMGIQF	< -0.25
VGLLRDPLQTPWYKANSHVV	< -0.25
VGLNIMKN	< -0.25
VGLPCKRGVG	< -0.25
VGLSGDALGAYALVFPMVLG	< -0.25
VGLSVRH	< -0.25
VGNCLLHKVTSTMPNQTRDH	< -0.25
VGNDRCARMCLIGPGFHDTN	< -0.25
VGNGDGASSGTGTFH	< -0.25
VGNGRGGYSLPVES	< -0.25
VGNQCDPKRGGSRTGVA	< -0.25
VGNVKRTTISGKGPIRPHGV	< -0.25
VGPGDEAQLALNQRREVRWL	< -0.25
VGPRDHIAWRGIWRQLTQCG	< -0.25
VGPYFLRPVLTGSSVCMECG	< -0.25

Retrieved one by one from the entries so far, 4 records:
Substance	growth estimate
VFCNYPYWGQLRAIFDAQCC	-0.248
VGGSGGRLDSLCCGYRGHQK	< -0.25
VEKRHSSLSEER	< -0.25
VGLSVRH	< -0.25

3 consecutive records already listed, for reference:
Substance	growth estimate
VGLLRDPLQTPWYKANSHVV	< -0.25
VGLNIMKN	< -0.25
VGLPCKRGVG	< -0.25
